# According to the supplement of paper PMC6411743:
# ± gives the standard deviation of the averaged measurements. This is a selection; strong and weak results do not stand in their true shares.
# Key:
# Experiment in all cases: NP40-soluble protein abundance relative to vehicle (solubility fold change) (ratio); higher = more soluble protein in presence of AMP-PNP
# [1] = molecular target: T1, CAMLG (UniProt P49069)
# T1 sequence (whole entry): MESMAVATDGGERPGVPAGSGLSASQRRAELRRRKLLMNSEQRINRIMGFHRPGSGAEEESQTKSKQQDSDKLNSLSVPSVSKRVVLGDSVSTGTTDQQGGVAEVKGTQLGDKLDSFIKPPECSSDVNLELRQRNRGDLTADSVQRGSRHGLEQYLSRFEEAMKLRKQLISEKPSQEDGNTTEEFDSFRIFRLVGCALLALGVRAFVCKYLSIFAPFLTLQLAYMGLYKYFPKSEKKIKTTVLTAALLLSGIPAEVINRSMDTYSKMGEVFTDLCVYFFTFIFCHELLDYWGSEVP
# In short: (§1)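 Jurkat crude lysate (Dounce-homogenised) was treated with eight concentrations from 0.1 to 10 mM for 10 min at room temperature, then 3 min at 37 °C. It was solubilised with 0.8% NP40 and benzonase (60 min, 4 °C) and ultracentrifuged, and the supernatant was TMT-labelled for LC-MS/MS. Intensities were vsn-normalised, and the value is the fold change against the NP40-processed vehicle per replicate, from three independent experiments.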
# [2] = molecular target: T2, HADHB (UniProt P55084)
# T2 sequence (whole entry): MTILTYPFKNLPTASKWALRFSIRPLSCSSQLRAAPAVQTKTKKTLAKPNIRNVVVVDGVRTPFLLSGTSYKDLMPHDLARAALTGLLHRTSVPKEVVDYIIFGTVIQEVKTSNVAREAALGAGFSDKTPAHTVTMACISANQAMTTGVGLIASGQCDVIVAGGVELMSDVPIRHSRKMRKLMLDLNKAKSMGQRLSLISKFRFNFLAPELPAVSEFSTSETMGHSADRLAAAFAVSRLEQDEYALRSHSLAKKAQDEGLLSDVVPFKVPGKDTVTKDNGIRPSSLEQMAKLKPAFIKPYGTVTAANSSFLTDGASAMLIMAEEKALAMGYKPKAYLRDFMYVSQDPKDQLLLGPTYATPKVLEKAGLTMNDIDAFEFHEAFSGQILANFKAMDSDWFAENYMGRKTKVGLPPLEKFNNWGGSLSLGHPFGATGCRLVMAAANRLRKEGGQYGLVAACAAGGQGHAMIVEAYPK
# In short: as §1
# [3] = molecular target: T3, HNRNPF (UniProt P52597)
# T3 sequence (whole entry): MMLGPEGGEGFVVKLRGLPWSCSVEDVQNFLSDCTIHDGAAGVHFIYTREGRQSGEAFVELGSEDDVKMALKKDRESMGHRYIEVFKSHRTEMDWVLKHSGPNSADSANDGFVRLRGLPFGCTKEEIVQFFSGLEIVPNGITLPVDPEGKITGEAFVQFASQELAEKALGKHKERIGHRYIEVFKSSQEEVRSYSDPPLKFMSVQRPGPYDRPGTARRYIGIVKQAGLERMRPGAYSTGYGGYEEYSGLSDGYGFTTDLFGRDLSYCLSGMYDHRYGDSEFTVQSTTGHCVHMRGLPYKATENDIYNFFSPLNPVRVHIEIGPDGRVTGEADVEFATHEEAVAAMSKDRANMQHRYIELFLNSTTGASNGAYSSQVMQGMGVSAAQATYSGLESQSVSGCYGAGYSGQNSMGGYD
# In short: as §1
# [4] = molecular target: T4, MDH2 (UniProt P40926)
# T4 sequence (whole entry): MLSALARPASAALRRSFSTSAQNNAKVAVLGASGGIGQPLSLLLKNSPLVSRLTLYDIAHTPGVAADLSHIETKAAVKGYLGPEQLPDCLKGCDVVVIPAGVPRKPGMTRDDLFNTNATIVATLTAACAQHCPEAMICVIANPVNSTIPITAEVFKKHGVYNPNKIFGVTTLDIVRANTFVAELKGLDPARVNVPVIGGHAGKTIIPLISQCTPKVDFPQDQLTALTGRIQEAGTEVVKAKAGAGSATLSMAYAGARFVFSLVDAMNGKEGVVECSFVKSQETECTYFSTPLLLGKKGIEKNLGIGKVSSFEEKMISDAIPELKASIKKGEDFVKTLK
# In short: as §1
# [5] = molecular target: T5, PIP4K2A (UniProt P48426)
# T5 sequence (whole entry): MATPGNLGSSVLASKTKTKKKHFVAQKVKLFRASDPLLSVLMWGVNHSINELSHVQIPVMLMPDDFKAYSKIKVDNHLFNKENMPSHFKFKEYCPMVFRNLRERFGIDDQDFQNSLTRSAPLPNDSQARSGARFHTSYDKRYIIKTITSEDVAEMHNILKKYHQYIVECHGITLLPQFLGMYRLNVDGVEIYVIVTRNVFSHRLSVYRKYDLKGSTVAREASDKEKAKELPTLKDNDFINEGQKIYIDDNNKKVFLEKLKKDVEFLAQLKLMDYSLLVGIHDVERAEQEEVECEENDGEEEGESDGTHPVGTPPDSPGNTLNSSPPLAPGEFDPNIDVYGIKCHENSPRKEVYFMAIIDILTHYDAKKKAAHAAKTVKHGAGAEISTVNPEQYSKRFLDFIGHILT
# In short: as §1
# [6] = molecular target: T6, PPM1F (UniProt P49593); settings: concentration: 1mM
# T6 sequence (whole entry): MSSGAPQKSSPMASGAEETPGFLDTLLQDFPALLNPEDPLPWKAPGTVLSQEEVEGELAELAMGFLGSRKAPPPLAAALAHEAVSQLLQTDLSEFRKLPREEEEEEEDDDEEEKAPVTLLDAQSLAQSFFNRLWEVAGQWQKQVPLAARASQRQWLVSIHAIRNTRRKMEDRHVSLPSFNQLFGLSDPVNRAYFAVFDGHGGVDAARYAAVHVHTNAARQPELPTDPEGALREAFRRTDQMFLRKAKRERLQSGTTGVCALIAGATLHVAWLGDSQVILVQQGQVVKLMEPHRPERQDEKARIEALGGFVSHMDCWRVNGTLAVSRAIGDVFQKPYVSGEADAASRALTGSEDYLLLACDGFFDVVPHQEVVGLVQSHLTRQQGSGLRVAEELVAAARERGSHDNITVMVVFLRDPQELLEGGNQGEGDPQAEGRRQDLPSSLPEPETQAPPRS
# In short: as §1
smiles,measurement,setting,value
Nc1ncnc2c1ncn2[C@@H]1O[C@H](COP(=O)(O)OP(=O)(O)NP(=O)(O)O)[C@@H](O)[C@H]1O [adenylyl imidodiphosphate],NP40-soluble protein abundance,[1]; concentration: 1mM,1.01 ± 0.024
same,NP40-soluble protein abundance,[1]; concentration: 2mM,1.06 ± 0.064
same,NP40-soluble protein abundance,[1]; concentration: 4mM,1.01 ± 0.048
same,NP40-soluble protein abundance,[1]; concentration: 6mM,0.994 ± 0.021
same,NP40-soluble protein abundance,[1]; concentration: 8mM,0.9695 ± 0.0082
same,NP40-soluble protein abundance,[1]; concentration: 10mM,1.01 ± 0.025
same,NP40-soluble protein abundance,[2]; concentration: 1mM,0.9728 ± 0.0092
same,NP40-soluble protein abundance,[2]; concentration: 2mM,0.923 ± 0.055
same,NP40-soluble protein abundance,[2]; concentration: 4mM,0.965 ± 0.024
same,NP40-soluble protein abundance,[2]; concentration: 6mM,0.969 ± 0.029
same,NP40-soluble protein abundance,[2]; concentration: 8mM,0.976 ± 0.035
same,NP40-soluble protein abundance,[2]; concentration: 10mM,0.984 ± 0.045
same,NP40-soluble protein abundance,[3]; concentration: 1mM,0.967 ± 0.036
same,NP40-soluble protein abundance,[3]; concentration: 2mM,0.913 ± 0.062
same,NP40-soluble protein abundance,[3]; concentration: 4mM,0.939 ± 0.02
same,NP40-soluble protein abundance,[3]; concentration: 6mM,0.973 ± 0.019
same,NP40-soluble protein abundance,[3]; concentration: 8mM,0.965 ± 0.027
same,NP40-soluble protein abundance,[3]; concentration: 10mM,0.921 ± 0.029
same,NP40-soluble protein abundance,[4]; concentration: 1mM,0.981 ± 0.064
same,NP40-soluble protein abundance,[4]; concentration: 2mM,0.98 ± 0.065
same,NP40-soluble protein abundance,[4]; concentration: 4mM,0.96 ± 0.045
same,NP40-soluble protein abundance,[4]; concentration: 6mM,1 ± 0.038
same,NP40-soluble protein abundance,[4]; concentration: 8mM,0.992 ± 0.014
same,NP40-soluble protein abundance,[4]; concentration: 10mM,1.01 ± 0.022
same,NP40-soluble protein abundance,[5]; concentration: 1mM,0.952 ± 0.037
same,NP40-soluble protein abundance,[5]; concentration: 2mM,0.998 ± 0.026
same,NP40-soluble protein abundance,[5]; concentration: 4mM,0.994 ± 0.048
same,NP40-soluble protein abundance,[5]; concentration: 6mM,1.07 ± 0.07
same,NP40-soluble protein abundance,[5]; concentration: 8mM,1.1 ± 0.048
same,NP40-soluble protein abundance,[5]; concentration: 10mM,1.12 ± 0.068
same,NP40-soluble protein abundance,[6],1.028 ± 0.0057

# Random excerpt: two entries already listed
smiles,measurement,setting,value
Nc1ncnc2c1ncn2[C@@H]1O[C@H](COP(=O)(O)OP(=O)(O)NP(=O)(O)O)[C@@H](O)[C@H]1O [adenylyl imidodiphosphate],NP40-soluble protein abundance,[4]; concentration: 6mM,1 ± 0.038
same,NP40-soluble protein abundance,[2]; concentration: 4mM,0.965 ± 0.024
